Test [1] has as its target T1, FLAG-OTUD1 (ovarian tumor deubiquitinase 1) (UniProt Q5VV17).
T1 sequence: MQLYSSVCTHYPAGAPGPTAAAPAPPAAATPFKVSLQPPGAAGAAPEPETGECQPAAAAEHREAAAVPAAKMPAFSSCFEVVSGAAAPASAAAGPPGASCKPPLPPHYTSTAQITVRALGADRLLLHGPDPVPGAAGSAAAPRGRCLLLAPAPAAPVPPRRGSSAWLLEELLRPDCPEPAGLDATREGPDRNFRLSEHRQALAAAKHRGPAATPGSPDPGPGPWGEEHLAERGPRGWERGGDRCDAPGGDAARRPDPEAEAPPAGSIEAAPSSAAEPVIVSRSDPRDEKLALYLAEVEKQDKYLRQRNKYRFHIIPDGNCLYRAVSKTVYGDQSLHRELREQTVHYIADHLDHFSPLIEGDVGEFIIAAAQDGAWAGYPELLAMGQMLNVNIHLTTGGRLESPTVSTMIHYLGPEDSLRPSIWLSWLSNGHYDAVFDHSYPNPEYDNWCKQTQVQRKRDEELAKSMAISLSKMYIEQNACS
As to the kind of experiment: co-IP; HEK-293T cells co-transfected with the plasmids; lysates with antibody overnight at 4°C, Protein A + G Agarose 4 h at 4°C, immunoblot; in Figure 4G OTUD1 precipitated with an anti-FLAG antibody. (In western blotting, separated proteins are transferred to a membrane and probed.)

Protein sequences, listed by entry. Tags and fused reporters are not part of them.
UniProt P35700: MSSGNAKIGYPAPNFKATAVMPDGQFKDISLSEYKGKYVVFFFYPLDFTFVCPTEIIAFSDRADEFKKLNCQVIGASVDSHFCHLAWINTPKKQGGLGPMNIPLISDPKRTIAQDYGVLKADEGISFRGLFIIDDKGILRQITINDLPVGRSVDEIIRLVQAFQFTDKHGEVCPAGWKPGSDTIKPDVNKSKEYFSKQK

Test [2] addresses T2, FLAG-OTUD1(C320S) (UniProt Q5VV17).
T2 sequence: T1 sequence with C320S
Described as above.

The target of test [3] is T3, OTUD1 in bone marrow-derived macrophages (mouse (endogenous in BMDMs)) (UniProt Q9CUB6).
T3 sequence: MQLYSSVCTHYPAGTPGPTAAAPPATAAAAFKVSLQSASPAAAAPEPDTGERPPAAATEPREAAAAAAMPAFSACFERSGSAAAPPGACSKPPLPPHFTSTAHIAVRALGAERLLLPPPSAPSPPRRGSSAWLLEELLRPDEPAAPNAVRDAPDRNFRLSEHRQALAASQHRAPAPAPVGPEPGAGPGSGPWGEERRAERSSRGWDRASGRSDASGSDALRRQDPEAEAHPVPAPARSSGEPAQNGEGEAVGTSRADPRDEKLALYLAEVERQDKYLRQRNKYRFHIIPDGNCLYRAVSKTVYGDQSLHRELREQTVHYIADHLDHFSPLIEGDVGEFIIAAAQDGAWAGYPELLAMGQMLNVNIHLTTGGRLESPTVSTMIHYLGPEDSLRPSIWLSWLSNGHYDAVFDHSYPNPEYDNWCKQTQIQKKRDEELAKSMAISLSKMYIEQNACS
Description: co-IP; BMDM lysates with antibody overnight at 4°C, Protein A + G Agarose 4 h at 4°C, immunoblot.

Where a chain is given by its changes, count along the chain named. No constants are given. Whether binding was seen depends on the method and setting. In cells and extracts the contact can be indirect. Some results given as binding are weak or reduced against the parent protein; the word gives no strength. For part of these data: Tags and fused reporters may be left off the sequences shown.

B1: GFP-PRDX1 (peroxiredoxin 1) (protein, UniProt Q06830 1-199)
chain: MSSGNAKIGHPAPNFKATAVMPDGQFKDISLSDYKGKYVVFFFYPLDFTFVCPTEIIAFSDRAEEFKKLNCQVIGASVDSHFCHLAWVNTPKKQGGLGPMNIPLVSDPKRTIAQDYGVLKADEGISFRGLFIIDDKGILRQITVNDLPVGRSVDETLRLVQAFQFTDKHGEVCPAGWKPGSDTIKPDVQKSKEYFSKQK
Turning to B1, the binding result in test [1] and in test [2] was “binds” each time.

B2: PRDX1 in bone marrow-derived macrophages (protein, UniProt P35700 1-199)
chain: B1 chain with H10Y, D33E, E64D, V88I, V105I, V144I, T156I, L157I, Q189N
B2: the binding result in test [3] is “binds”.

These data come from article PMC12203675.
